## Library screening results

By UniProt entry, the sequences of proteins in these tests, tags left out.
UniProt E9BF75, entry or part of it: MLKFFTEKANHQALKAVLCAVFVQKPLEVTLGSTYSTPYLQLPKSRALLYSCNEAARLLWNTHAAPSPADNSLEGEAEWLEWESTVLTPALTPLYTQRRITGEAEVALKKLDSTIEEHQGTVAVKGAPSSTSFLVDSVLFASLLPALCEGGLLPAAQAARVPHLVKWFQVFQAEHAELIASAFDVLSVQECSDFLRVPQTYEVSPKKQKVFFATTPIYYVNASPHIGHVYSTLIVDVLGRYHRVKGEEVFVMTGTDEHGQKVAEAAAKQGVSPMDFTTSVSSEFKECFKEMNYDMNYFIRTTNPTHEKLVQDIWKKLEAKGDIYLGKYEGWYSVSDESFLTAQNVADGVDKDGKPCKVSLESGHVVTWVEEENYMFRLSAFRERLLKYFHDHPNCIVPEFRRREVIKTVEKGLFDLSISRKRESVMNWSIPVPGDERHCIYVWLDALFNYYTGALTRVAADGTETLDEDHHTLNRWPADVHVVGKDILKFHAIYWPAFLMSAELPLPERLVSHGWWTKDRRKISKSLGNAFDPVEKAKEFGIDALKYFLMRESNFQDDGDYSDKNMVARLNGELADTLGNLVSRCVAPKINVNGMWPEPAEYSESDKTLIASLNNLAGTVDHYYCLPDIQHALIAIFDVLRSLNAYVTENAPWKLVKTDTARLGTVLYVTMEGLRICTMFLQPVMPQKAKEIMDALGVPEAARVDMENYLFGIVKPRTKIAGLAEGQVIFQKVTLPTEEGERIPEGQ

Results are percentages, as filed.
The record does not define 0% and 100%; most values in the screen are far below 50% and negative numbers occur (in some assays of this library far below -100).
This is an unselected part of the compounds tested.

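Methionyl-tRNA synthetase (putative), Leishmania donovani (UniProt E9BF75). Primary screen of methionyl-tRNA synthetase; the read-out is not stated. The test concentration is not given. The values are filed as inhibition. Of about 68,000 compounds tested this way, about 24 (0.035%) reached 50% or more in at least one test.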

Result for CN(C)C(=O)C1CCN(Cn2ccc(-c3ccc(F)cc3)n2)CC1 was 9.409%. For O=C(c1ccc(S(=O)(=O)NCCc2ccncc2)cc1)N1CCCC1 the result was 9.645%. With COc1c(CNCCc2c[nH]c3ccccc23)c(C)nn1C the screen gave 19.2%. O=C(NCc1ccccc1)N1CCC(Oc2ncccc2Br)CC1 gave 9.42%.

With CCCN1CCC(N2CCC(Cn3cc(C4CC4)nn3)CC2)CC1 the screen gave 16.01%. CS(=O)(=O)CCOc1nc(-c2ccccc2Cl)no1 read 9.581%. O=C(NCCn1nc(-n2cncn2)ccc1=O)c1ccccc1Br read 18.7%. CNCc1cnc(Nc2ccccc2)nc1 gave 4.313%.

For COCCC(=O)N1C[C@H]2CN(Cc3cccc(C)n3)C(=O)[C@H]2C1 the result was 14.48%. With CCc1nc(C2CCCN2CCn2cncn2)no1 (configuration not stated) the screen gave 12.89%. For CN1N=C(C(=O)Nc2cc(F)ccc2OCC2CCCO2)CCC1=O (configuration not stated) the result was -2.834%. CSCCC(Nc1nc(C)cc(C)n1)C(=O)NC1CC1 (configuration not stated) gave 18.59%.

With COc1cc(C)nc(N2CCN(C(=O)CN(C)C3CC3)CC2)n1 the screen gave 4.908%. For COCC(=O)N[C@@H]1CN(Cc2ccc3c(c2)OCCO3)C[C@H]1O the result was 10.32%. CSCC(=O)N1CCCN(c2ccccc2C)CC1 gave 14.5%. CCS(=O)(=O)N1Cc2nccn2CC(Cn2nc(C)nc2C)C1 (configuration not stated) read 16.73%.

For N#Cc1cccc(OCCN2CCNC(=O)C2c2cccs2)c1 (configuration not stated) the result was 12.23%. For CC(=O)N1CCC(Oc2ccc(Cl)cn2)CC1 the result was 10.34%. For Cc1noc(C)c1CCC(=O)Nc1ccn(C)n1 the result was 9.309%. O=C(CS(=O)(=O)Cc1ccc(F)cc1)NC1CCCCNC1=O (configuration not stated) gave 16.48%.

For Cn1nnc2c1C(COCC1CC1)CN(C(=O)Cc1cccs1)C2 (configuration not stated) the result was 14.12%. For Cn1cccc1CNCC1CCCn2cc(C(C)(C)C)nc21 (configuration not stated) the result was 19.76%. Result for Fc1cnc(N2CCOC3(CCN(Cc4ccsc4)CC3)C2)nc1 was 5.579%. For O=C(C1CCOC1)N1Cc2ccccc2OC2(CCOCC2)C1 (configuration not stated) the result was 17.09%.

O=C(C1CCS(=O)(=O)C1)N1CCC(=Cc2cccc(F)c2)CC1 (configuration not stated) read 11.34%. For Cc1oc(-c2nc(C#N)c(NCC(C)C)o2)cc1S(=O)(=O)N1CCCC1 the result was 5.152%. Result for CC(C)c1nc2c(n1C)CCN(CC(=O)Nc1ccnn1C(C)C)C2 was 13.81%. N#Cc1ccc(F)c(CN(CC(=O)N2CCCC2)CC2CCCO2)c1 (configuration not stated) read 10.92%.

Cc1cc(CN2CCc3c(CNc4ncccn4)cncc3C2)oc1C read 11.11%. With O=C(Cn1ccnc1)N(CCO)CCSc1ccc(Cl)cc1 the screen gave 13.76%. With FC(F)(F)C1CCCn2c(CNCc3cccs3)nnc21 (configuration not stated) the screen gave 10.56%.

Source: ChEMBL document CHEMBL3988442, “University of Dundee, Small-Polar-MMV Screening Library” (2021).